Experimental data reported in PubChem BioAssay AID1347076 (National Center for Advancing Translational Sciences (NCATS), 2019).
Screen size: about 400,000 compounds; about 13,000 (3.2%) were called active. The shares of active, inactive and inconclusive entries below differ from those in the screen. Calls come from the whole dose curve; as a rule, active = well fitted cell-killing curve with a large enough effect; inconclusive = small, poorly fitted or top-dose-only effect, or effect the other way; inactive = flat fitted curve, though single readings scatter. Where the call is inconclusive, the potency comes from a doubtful curve fit.

Assay: qHTS assay for MDR1-selective chemotherapeutics: Primary screen using the drug-selected MDR subline cells KB-V1; note: nearly all actives have a fitted effect of over 60% in size
Settings: KB-V1 MDR cells viability, CellTiter-Glo, 72 h; activity change, negative = cytotoxicity: at 46.1 µM (top of the series)
Summary of the method: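 KB-V1, DMEM (no phenol red) + 10% FBS; cpd pin-transferred, titration series; 72 h, 37 degrees C; CellTiter-Glo, luminescence. Data normalized, curve-fit.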
% is set by controls: 0 for no effect and ±100 for the full control effect; potency is the fitted concentration of half-maximal effect.

Row | SMILES | Potency | activity change, negative = cytotoxicity
1 | CCOc1cc(C=O)ccc1O | inactive | –
2 | CCN(CC)C(=O)c1ccc(NC(=O)c2cccc(C(F)(F)F)c2)cc1 | inactive | –
3 | N=c1c2c(n(Cc3ccc(Cl)cc3Cl)c3c1CCC3)CCCC2 | inactive | –
4 | COc1ccc(CN2Cc3cnnn3-c3ccccc3C2c2ccccc2)cc1 (stereo not given) | inconclusive: 16.4 µM [cytotoxic, single point] | –
5 | CC(=O)NCC1=C(c2cccc3ccccc23)C[C@@H]2CC[C@H]1N2Cc1ccco1 | inactive | –
6 | CC(=O)[C@H]1CC[C@H]2[C@@H]3CC[C@H]4C[C@H](O)CC[C@]4(C)[C@H]3C(=O)C[C@]12C | inactive | –
7 | COc1ccc(CN2Cc3cc(-c4cccc(F)c4)ccc3-n3nncc3C2)cc1 | inconclusive: 20.6 µM [cytotoxic, partial curve, poor fit] | –
8 | COC(=O)C1=C(c2ccc(F)cc2OCc2ccccc2)C[C@@H]2CC[C@H]1N2C(=O)NCCOc1ccccc1 | inconclusive: 11.6 µM [cytotoxic, partial curve, poor fit] | –
9 | CCOC(=O)c1ccccc1N | inconclusive: 29.1 µM [rising, single point] | –
10 | Cc1cc2c(C(F)(F)F)cc(=O)oc2c2c1NCCC2 | inactive | –
11 | COC(=O)C1=C(c2cccc3c2S(=O)(=O)c2ccccc2-3)C[C@@H]2CC[C@H]1N2C(=O)N1CCc2cc(OC)c(OC)cc2C1 | inactive | –
12 | CC1=CC2OC3CC4OC(=O)C=CC=CC(C(C)O)OCC(O)C(C)CC(=O)OCC2(CC1O)C4(C)C31CO1 (stereo not given) | inconclusive: 3.26 µM [cytotoxic, full curve] | –
13 | COc1ccc(C(c2nnnn2-c2ccc3c(c2)OCCO3)N2CCC(n3c(=O)[nH]c4ccccc43)CC2)cc1 (stereo not given) | inconclusive: 29.1 µM [cytotoxic, single point] | –
14 | O=C(OCCN1CCOCC1)C1(c2ccccc2)CCCC1 | inconclusive: 18.4 µM [cytotoxic, partial curve, poor fit] | –
15 | COc1ccc(CCNCc2sccc2C)cc1OC | inactive | –
16 | Oc1cc2c(cc1CN1CCN(c3ccccc3)CC1)OCO2 | inactive | –
17 | COC(=O)C1=C(c2ccc3ccccc3c2)C[C@@H]2CC[C@H]1N2C(=O)NCCCOC(C)C | inactive | –
18 | Cc1ccccc1CC(=O)N(CCN(C)C)CC1CCCN(Cc2ccccc2F)C1 (stereo not given) | inconclusive: 4.61 µM [cytotoxic, partial curve] | –
19 | Cc1cc(OCC(=O)NCc2ccncc2)c2c3c(c(=O)oc2c1)CCCC3 | inconclusive: 16.4 µM [cytotoxic, partial curve, poor fit] | –
20 | COC(=O)C1=C(c2ccc(OC(F)(F)F)cc2)C[C@@H]2CC[C@H]1N2C(=O)NCCOc1ccccc1Cl | inconclusive: 14.6 µM [cytotoxic, partial curve] | –
21 | COc1ccccc1N1CCN(Cc2c(F)cccc2Cl)CC1 | inconclusive: 14.1 µM [cytotoxic, single point] | –
22 | Cn1cc(C(=O)N2CCOCC2)c2ccccc21 | inactive | –
23 | CN(C)C(CNC(=O)Cc1ccc(Br)cc1)c1ccccc1 (stereo not given) | – | inconclusive: -30.3% [cytotoxic]
24 | CN(C)c1ccc(C(=O)N/N=C/C23CC[C@@H](O)CC2(O)CC[C@@H]2[C@@H]3CCC3(C)C(C4=CC(=O)OC4)CCC23O)cc1 (stereo not given in full) | inconclusive: 14.6 µM [cytotoxic, partial curve, poor fit] | –

Row | SMILES | Potency | activity change, negative = cytotoxicity
25 | C[C@]12CCC(=O)C=C1CCC1C2CC[C@@]2(C)C1CC[C@]2(C)O (stereo not given in full) | inconclusive: 29.1 µM [cytotoxic, single point] | –
26 | ClCCN(CCCl)c1ccc(C=Nc2ccc(/C=C/c3ccnc4ccccc34)cc2)cc1 | inconclusive: 29.1 µM [cytotoxic, single point] | –
27 | COC(=O)C1=C(c2cccc(OC)c2OC)C[C@@H]2CC[C@H]1N2C(=O)NCCS(C)=O (stereo not given in full) | inactive | –
28 | O=c1[nH]c2ccccc2n1C1CCN(C(CCc2ccccc2)c2nnnn2C2CCCCC2)CC1 (stereo not given) | inconclusive: 20.6 µM [cytotoxic, single point] | –
29 | CN1C(=O)C(=Cc2ccc(OCCN(C)c3ccccn3)cc2)C(=O)N(C)C1=O | inconclusive: 29.1 µM [rising, single point] | –
30 | Cc1cccc(N=C2c3cc([N+](=O)[O-])ccc3-c3c2cc([N+](=O)[O-])cc3[N+](=O)[O-])c1 | inconclusive: 20.6 µM [cytotoxic, single point] | –
31 | Cc1cc(/C=C/c2ccnc3ccccc23)ccc1N(CCCl)CCCl | inactive | –
32 | O=C([O-])c1ccc(-[n+]2c(-c3ccccc3)cc(-c3ccccc3)cc2-c2ccccc2)cc1 | inactive | –
33 | O=C(c1ccccc1[N+](=O)[O-])N1CCC2(CC1)OCCO2 | inactive | –
34 | CN1C(=O)/C(=C\c2ccc(N3CCCCC3)o2)C(=O)NC1=S | inactive | –
35 | c1ccc(CN2Cc3ccccc3-n3nncc3C2)cc1 | inconclusive: 29.1 µM [cytotoxic, partial curve, poor fit] | –
36 | CCOc1ccc(N=Cc2c(O)n(C(C)(C)C)c(=O)[nH]c2=O)cc1 | inconclusive: 29.1 µM [cytotoxic, single point] | –
37 | COC(=O)C1=C(c2ccc3ccccc3c2)C[C@@H]2CC[C@H]1N2C(=O)N1CCC(C)CC1 | inconclusive: 29.1 µM [cytotoxic, single point] | –
38 | O=C(Nc1cccc(OC(=O)N2CCOCC2)c1)N1CCOCC1 | inconclusive: 16.4 µM [rising, single point] | –
39 | COc1ccc(-n2c(/C=C\c3ccccc3F)nc3ccccc3c2=O)cc1OC | inconclusive: 20.6 µM [cytotoxic, single point] | –
40 | O=C(Cc1ccccc1)N1CCN(Cc2ccc([N+](=O)[O-])cc2)CC1 | inactive | –
41 | CCN(CC)S(=O)(=O)c1ccc(C)c(NCC(=O)Nc2ccc(C#N)c(Cl)c2)c1 | inconclusive: 25.9 µM [cytotoxic, partial curve, poor fit] | –
42 | COc1cccc(NP(=O)(Oc2ccccc2Cl)Oc2ccccc2Cl)c1 | inconclusive: 25.9 µM [cytotoxic, single point] | –
43 | COc1cccc(-n2c(/C=C/c3ccccc3O)nc3ccccc3c2=O)c1 | inconclusive: 29.1 µM [cytotoxic, single point] | –
44 | O=C(N/N=C/c1c(O)n(CCc2ccccc2)c(=O)[nH]c1=O)c1ccccc1O | inconclusive: 18.4 µM [cytotoxic, partial curve, poor fit] | –
45 | S=C1CN=C(c2ccccc2)c2cc(Cl)ccc2N1 | inconclusive: 28.2 µM [rising, single point] | –
46 | C=Cn1ccnc1P(=S)(c1cc(N(CC)CC)ns1)c1nccn1C=C | inconclusive: 10.3 µM [cytotoxic, partial curve, poor fit] | –
47 | Clc1cccc(Cl)c1CN1CCN(c2ccccc2)CC1 | inactive | –
48 | C=C1C(=O)OC2C1CCC(C)C1(O)C=CC(=O)C21C (stereo not given) | inconclusive: 23.1 µM [cytotoxic, single point] | –

Single entries from the list.
Value of O=C([O-])c1ccc(-[n+]2c(-c3ccccc3)cc(-c3ccccc3)cc2-c2ccccc2)cc1 under Potency: inactive
Value of O=C(N/N=C/c1c(O)n(CCc2ccccc2)c(=O)[nH]c1=O)c1ccccc1O under Potency: inconclusive: 18.4 µM [cytotoxic, partial curve, poor fit]

(more compounds)

Row | SMILES | Potency | activity change, negative = cytotoxicity
49 | COc1cc([C@@H]2c3cc4c(cc3[C@@H](O)[C@H]3COC(=O)[C@H]23)OCO4)cc(OC)c1O | inconclusive: 0.58 µM [cytotoxic, full curve, poor fit] | –
50 | O=C(Nc1cc(Cl)cc(Cl)c1)N1Cc2ccccc2-n2nncc2C1 | inconclusive: 16.4 µM [rising, single point] | –
51 | COC1=CC(=O)OC(CCc2ccc3c(c2)OCO3)C1 (stereo not given) | inconclusive: 29.1 µM [rising, single point] | –
52 | Cc1nc2cc(C(F)(F)F)ccc2n1C1CCN(Cc2nnnn2Cc2cccs2)CC1 | inconclusive: 9.2 µM [cytotoxic, partial curve] | –
53 | CCCCCn1c(=O)c(C(=O)Nc2ccccn2)c(O)c2ccccc21 | active: 6.51 µM | –
54 | CCc1nc2ccccc2c(=O)n1-c1ccccc1OC | inconclusive: 32.6 µM [rising, single point] | –
55 | COc1ccc(-c2nc(CSCC(=O)N3CCC4(CC3)OCCO4)c(C)o2)cc1OC | inconclusive: 25.9 µM [cytotoxic, single point] | –
56 | COC(=O)C12CCc3c(ccc4cc(OC)ccc34)C1=CC(=O)C2 (stereo not given) | active: 20.6 µM | –
57 | C=Cn1ccnc1P(=S)(c1ccn(C)c1)c1nccn1C=C | inconclusive: 14.6 µM [cytotoxic, partial curve] | –
58 | N#CCC(=O)NN1Cc2ccccc2C1=N | inconclusive: 16.4 µM [rising, single point] | –
59 | COc1ccc(-n2c(=O)[nH]c3ccccc3c2=O)c(OC)c1 | inconclusive: 29.1 µM [cytotoxic, single point] | –
60 | Cc1ccc(NC(=O)CN2C(=O)CN=C(c3ccccc3)c3ccccc32)cc1 | inactive | –
61 | CCCC(C)(COC(N)=O)COC(=O)NC(C)C (stereo not given) | inactive | –
62 | CN1C(=O)N(C)C(=O)C2(Cc3cc([N+](=O)[O-])ccc3N(C)C2)C1=O | inactive | –
63 | COc1ccc(CC2NCC(O)C2OC(C)=O)cc1 (stereo not given) | active: 0.184 µM | –
64 | COC(=O)C1=C(c2ccc(OCc3ccccc3)cc2)C[C@@H]2CC[C@H]1N2C(=O)NCc1ccccc1OC | inconclusive: 29.1 µM [cytotoxic, single point] | –
65 | CSCCC(c1nnnn1C1CCCC1)N1CCC(n2c(=O)[nH]c3ccccc32)CC1 (stereo not given) | active: 23.1 µM | –
66 | CN/C=C(/Cl)P(=O)(OC(C)C)OC(C)C | inactive | –
67 | Cc1ccccc1-n1nc(C)c2c1NC(=O)CSC2c1ccc(N(C)C)cc1 (stereo not given) | inactive | –
68 | CCCCCc1nc2ccccc2c(=O)n1-c1ccc(C)cc1 | inactive | –
69 | CC1C2Cc3ccc(O)cc3[C@]1(C)CCN2CCc1ccccc1 (stereo not given in full) | inconclusive: 11.6 µM [cytotoxic, partial curve] | –
70 | O=c1[nH]c(=O)n(CCc2ccccc2)c(O)c1C=NCc1ccc2c(c1)OCO2 | inconclusive: 1.03 µM [cytotoxic, full curve, poor fit] | –

Whole records from above:
`COC1=CC(=O)OC(CCc2ccc3c(c2)OCO3)C1` (stereo not given) in the list: Potency: inconclusive: 29.1 µM [rising, single point]
`CC1C2Cc3ccc(O)cc3[C@]1(C)CCN2CCc1ccccc1` (stereo not given in full) in the list: Potency: inconclusive: 11.6 µM [cytotoxic, partial curve]
